Source: PubChem BioAssay AID652243 (Drosophila RNAi Screening Center, 2013)

- Test: 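Knock-downs that decrease or increase androgen receptor reporter signal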 (primary screen)
- Cells: Drosophila S2R+ cells
- Knock-down reagent: long dsRNA against Drosophila genes
- Duration: 72 h (48 h, then 24 h hormone)
- Challenge: synthetic androgen R1881 at 10 nM for 24 h
- Measurement: 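Per-well raw luminescence of the androgen-driven firefly reporter and of the Renilla control, two replicates each, without normalisation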
- Reading the numbers: firefly reporter light: higher = more light from androgen-responsive reporter; Renilla control light: higher = more constitutive control signal (cell number, transfection)
- Hit rule: 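Hit when the log firefly-to-Renilla ratio dropped or increased by a fixed fold versus the mean of GFP or LacZ controls across duplicate plates; lowering cut given as 1.5 and as 3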
- Calls: active = hit: reporter lowered or raised; inactive = no hit
In all, the deposit lists about 24,000 reagents; this is an unselected part of those that have a named target and a result. In the full data, 246 (1%) got an active call. 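Plates not normalised; calls are printed but the firefly/Renilla ratio behind them is not deposited; fold cut for lowering reported inconsistently.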 Raw values are not corrected between plates. The numbers tell different reagents against one gene apart. The record does not give: the amount of reagent.

Knock-down of CG13293 came out at: firefly reporter light, replicate 1 = 65718; firefly reporter light, replicate 2 = 74222; Renilla control light, replicate 1 = 1.30e6; Renilla control light, replicate 2 = 1.07e6; inactive. Rab27 showed firefly reporter light, replicate 1 = 1.48e5; firefly reporter light, replicate 2 = 1.19e5; Renilla control light, replicate 1 = 1.02e6; Renilla control light, replicate 2 = 9.99e5; inactive. a5 showed firefly reporter light, replicate 1 = 1.30e5; firefly reporter light, replicate 2 = 85817; Renilla control light, replicate 1 = 7.98e5; Renilla control light, replicate 2 = 8.10e5; inactive. CG15071 #1 gave firefly reporter light, replicate 1 = 80229; firefly reporter light, replicate 2 = 1.16e5; Renilla control light, replicate 1 = 1.42e6; Renilla control light, replicate 2 = 1.53e6; inactive. With knock-down of CG15071 #2, the screen gave firefly reporter light, replicate 1 = 5.39e5; firefly reporter light, replicate 2 = 7.22e5; Renilla control light, replicate 1 = 9.89e5; Renilla control light, replicate 2 = 1.60e6; inactive. Silencing of CG8236 #1 resulted in: firefly reporter light, replicate 1 = 1.43e5; firefly reporter light, replicate 2 = 93866; Renilla control light, replicate 1 = 1.87e6; Renilla control light, replicate 2 = 1.75e6; inactive.

After knock-down of CG8236 #2, the record shows firefly reporter light, replicate 1 = 2.05e5; firefly reporter light, replicate 2 = 2.24e5; Renilla control light, replicate 1 = 4.81e5; Renilla control light, replicate 2 = 5.07e5; inactive. nst scored firefly reporter light, replicate 1 = 8.78e5; firefly reporter light, replicate 2 = 8.41e5; Renilla control light, replicate 1 = 1.18e6; Renilla control light, replicate 2 = 1.57e6; inactive. After knock-down of CG13511 #1 the results were firefly reporter light, replicate 1 = 2.59e5; firefly reporter light, replicate 2 = 2.41e5; Renilla control light, replicate 1 = 1.81e6; Renilla control light, replicate 2 = 1.62e6; inactive. Against CG13511 #2, the entry reads firefly reporter light, replicate 1 = 5.24e5; firefly reporter light, replicate 2 = 5.14e5; Renilla control light, replicate 1 = 1.45e6; Renilla control light, replicate 2 = 1.39e6; inactive. For CG4607 the deposit lists firefly reporter light, replicate 1 = 4.27e5; firefly reporter light, replicate 2 = 6.04e5; Renilla control light, replicate 1 = 3.05e6; Renilla control light, replicate 2 = 3.70e6; inactive. After knock-down of Ir85a #1 the results were firefly reporter light, replicate 1 = 99436; firefly reporter light, replicate 2 = 99668; Renilla control light, replicate 1 = 2.21e6; Renilla control light, replicate 2 = 1.58e6; inactive.

After knock-down of Ir85a #2 the results were firefly reporter light, replicate 1 = 4.95e5; firefly reporter light, replicate 2 = 3.81e5; Renilla control light, replicate 1 = 1.32e6; Renilla control light, replicate 2 = 1.17e6; inactive. After knock-down of DopEcR the results were firefly reporter light, replicate 1 = 6.97e5; firefly reporter light, replicate 2 = 4.03e5; Renilla control light, replicate 1 = 7.94e5; Renilla control light, replicate 2 = 5.38e5; inactive. Against beta3GalTII #1, the values are firefly reporter light, replicate 1 = 2.86e5; firefly reporter light, replicate 2 = 3.78e5; Renilla control light, replicate 1 = 1.23e6; Renilla control light, replicate 2 = 1.34e6; inactive. With knock-down of beta3GalTII #2, the record shows firefly reporter light, replicate 1 = 9.74e5; firefly reporter light, replicate 2 = 9.58e5; Renilla control light, replicate 1 = 1.75e6; Renilla control light, replicate 2 = 1.50e6; inactive. Knock-down of CG32074 #1 resulted in: firefly reporter light, replicate 1 = 6.30e5; firefly reporter light, replicate 2 = 7.72e5; Renilla control light, replicate 1 = 1.65e6; Renilla control light, replicate 2 = 1.27e6; inactive. CG32074 #2 gave firefly reporter light, replicate 1 = 3.72e5; firefly reporter light, replicate 2 = 3.26e5; Renilla control light, replicate 1 = 7.98e5; Renilla control light, replicate 2 = 8.54e5; inactive.

With knock-down of Efhc1.1, the screen gave firefly reporter light, replicate 1 = 6.58e5; firefly reporter light, replicate 2 = 5.71e5; Renilla control light, replicate 1 = 3.58e6; Renilla control light, replicate 2 = 3.08e6; inactive. Argk1 #1 showed inactive. Silencing of Argk1 #2 came out at: firefly reporter light, replicate 1 = 2.78e5; firefly reporter light, replicate 2 = 3.09e5; Renilla control light, replicate 1 = 3.75e6; Renilla control light, replicate 2 = 2.18e6; inactive. With knock-down of Argk1 #3, the record shows firefly reporter light, replicate 1 = 1.12e6; firefly reporter light, replicate 2 = 6.24e5; Renilla control light, replicate 1 = 1.74e6; Renilla control light, replicate 2 = 1.12e6; inactive. Argk1 #4 scored firefly reporter light, replicate 1 = 7.52e5; firefly reporter light, replicate 2 = 6.24e5; Renilla control light, replicate 1 = 1.35e6; Renilla control light, replicate 2 = 1.50e6; inactive. Argk1 #5 scored firefly reporter light, replicate 1 = 6.11e5; firefly reporter light, replicate 2 = 5.73e5; Renilla control light, replicate 1 = 1.40e6; Renilla control light, replicate 2 = 1.12e6; inactive.

Knock-down of yl #1 came out at: firefly reporter light, replicate 1 = 3.24e5; firefly reporter light, replicate 2 = 3.57e5; Renilla control light, replicate 1 = 3.11e6; Renilla control light, replicate 2 = 3.02e6; inactive. Depletion of yl #2 resulted in: firefly reporter light, replicate 1 = 5.09e5; firefly reporter light, replicate 2 = 4.90e5; Renilla control light, replicate 1 = 9.56e5; Renilla control light, replicate 2 = 1.25e6; inactive. CG12923 showed firefly reporter light, replicate 1 = 2.71e5; firefly reporter light, replicate 2 = 2.25e5; Renilla control light, replicate 1 = 1.49e6; Renilla control light, replicate 2 = 1.20e6; inactive.

4 of these entries, set out differently:
{"Gene":"Efhc1.1","reagent":1,"firefly reporter light, replicate 1":6.58e5,"firefly reporter light, replicate 2":5.71e5,"Renilla control light, replicate 1":3.58e6,"Renilla control light, replicate 2":3.08e6,"Outcome":"inactive"}
{"Gene":"Argk1","reagent":1,"Outcome":"inactive"}
{"Gene":"Argk1","reagent":2,"firefly reporter light, replicate 1":2.78e5,"firefly reporter light, replicate 2":3.09e5,"Renilla control light, replicate 1":3.75e6,"Renilla control light, replicate 2":2.18e6,"Outcome":"inactive"}
{"Gene":"Argk1","reagent":3,"firefly reporter light, replicate 1":1.12e6,"firefly reporter light, replicate 2":6.24e5,"Renilla control light, replicate 1":1.74e6,"Renilla control light, replicate 2":1.12e6,"Outcome":"inactive"}
